Test: Salt form assessment (crystallization propensity, DSC/XRPD physical properties, appearance, counter-ion acceptability, salt suitability)
Type: physicochemical
Parameters: key: “+/+/+” indicates most favorable; “+/+” indicates more favorable; “+” indicates favorable; “−” indicates unfavorable; “−/−” indicates more unfavorable; “−/−/−” indicates most unfavorable
Conditions: for Salt suitability: overall
Description: Samples were analyzed by differential scanning calorimetry (DSC), X-ray powder diffraction (XRPD), and dynamic vapor sorption (DVS). In addition, the appearance and visual properties of each sample were assessed, in addition to propensity for crystallization.
A summary of the data obtained from the analyses of the individual salt forms of Examples 1-9 are presented in Table 10, with advantageous and detrimental properties summarized using the following nomenclature: “+/+/+” indicates most favorable; “+/+” indicates more favorable; “+” indicates favorable; “−” indicates unfavorable; “−/−” indicates more unfavorable; “−/−/−” indicates most unfavorable.

SMILES | Counter-ion physiological acceptability | Salt suitability
CN(C)CCc1c[nH]c2ccccc12 [Example 1, 2-(1H-indol-3-yl)-N,N-dimethylethan-1-amine] | +/+/+ | +/+/+
CN(C)CCc1c[nH]c2ccccc12 [Example 2, 2-(1H-indol-3-yl)-N,N-dimethylethan-1-amine] | +/+/+ | +/+/+
CN(C)CCc1c[nH]c2ccccc12 [Example 3, 2-(1H-indol-3-yl)-N,N-dimethylethan-1-amine] | + | +/+
CN(C)CCc1c[nH]c2ccccc12 [Example 4, 2-(1H-indol-3-yl)-N,N-dimethylethan-1-amine] | +/+/+ | +
CN(C)CCc1c[nH]c2ccccc12 [Example 5, 2-(1H-indol-3-yl)-N,N-dimethylethan-1-amine] | + | −
CN(C)CCc1c[nH]c2ccccc12 [Example 6, 2-(1H-indol-3-yl)-N,N-dimethylethan-1-amine] | + | −/−/−
CN(C)CCc1c[nH]c2ccccc12 [Example 7, 2-(1H-indol-3-yl)-N,N-dimethylethan-1-amine] | + | −/−/−
CN(C)CCc1c[nH]c2ccccc12 [Example 8, 2-(1H-indol-3-yl)-N,N-dimethylethan-1-amine] | +/+/+ | −/−/−
CN(C)CCc1c[nH]c2ccccc12 [Example 9, 2-(1H-indol-3-yl)-N,N-dimethylethan-1-amine] | +/+/+ | −/−/−
